PubChem BioAssay AID1733 (National Center for Advancing Translational Sciences (NCATS), 2009)
Inconclusive results, whose numbers are uncertain, are shown with a selection of clear calls. Potencies of inconclusive entries are doubtful fits and often do not repeat. Active and inactive are the calls of the source. Calls come from the whole dose curve; as a rule, active = well fitted inhibition curve with a large enough effect; inconclusive = small, poorly fitted or top-dose-only effect; inactive = flat fitted curve, though single readings scatter.

The chains behind the UniProt entries cited, without tags or fusion partners.
UniProt P08659, whole entry, looked up: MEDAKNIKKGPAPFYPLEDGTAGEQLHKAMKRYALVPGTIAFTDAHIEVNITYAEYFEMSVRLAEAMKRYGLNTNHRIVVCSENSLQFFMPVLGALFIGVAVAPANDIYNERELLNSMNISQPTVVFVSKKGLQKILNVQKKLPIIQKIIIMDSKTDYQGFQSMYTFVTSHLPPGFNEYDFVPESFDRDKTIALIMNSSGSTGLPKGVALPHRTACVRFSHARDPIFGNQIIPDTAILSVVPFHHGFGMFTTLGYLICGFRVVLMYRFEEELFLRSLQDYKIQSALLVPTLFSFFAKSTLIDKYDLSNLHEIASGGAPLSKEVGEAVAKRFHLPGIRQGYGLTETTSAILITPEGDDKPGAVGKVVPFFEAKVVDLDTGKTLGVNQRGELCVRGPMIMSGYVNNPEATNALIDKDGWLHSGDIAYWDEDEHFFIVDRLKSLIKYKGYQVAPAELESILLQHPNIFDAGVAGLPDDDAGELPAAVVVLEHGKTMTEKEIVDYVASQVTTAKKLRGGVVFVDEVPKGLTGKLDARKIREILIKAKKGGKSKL

These molecules were tested against Luciferin 4-monooxygenase (Photinus pyralis) (UniProt P08659) (assay: Counterscreen Assay for Enhancers of SMN2 Splice Variant Expression: Interaction with Luciferase Reporter). Settings: purified firefly luciferase, luminescence, 5 min; series mostly up to 40.3 µM; activity change, negative = inhibition: at the top concentration.
Excerpt: NIH Chemical Genomics Center [NCGC] NIH Molecular Libraries Probe Production centers Network [MLPCN] MLPCN Grant: R03 MH084179-01 Assay Submitter (PI): Elliot Androphy NCGC Assay Overview: Spinal muscular atrophy (SMA) is caused by insufficient levels of the survival motor neuron protein SMN. The SMN locus on chromosome 5q13 contains two inverted copies of SMN called SMN1 and SMN2 which are 99% identical at the amino acid level. SMN1 is a fully functional protein and SMN2 skips exon 7 90% of the time. Skipping of exon 7 produces non-functional protein product. 10% of the SMN2 protein includes exon 7 and is fully functional. In the SMA disease state, mutations in the SMN1 locus are the cause of the disease state. Because only 10% of SMN2 is of the fully functional form, it is not sufficient to overcome the deficiency produced by the loss of the SMN1 product. A therapy that either increases the amount of SMN2 product made increases the inclusion of exon 7 has been proposed for the treatment of SMA. We have designed an assay to identify small molecules that can increase the amount of functional SMN2 product by appending a luciferase reporter gene after the native SMN2 gene, such that inclusion of exon 7 in the expressed product places the luciferase sequence in frame, thus generating functional luciferase enzyme. One potential source of false positives in the primary screening assay is stabilization of the reporter luciferase via direct binding. This assay attempts to identify such compounds by screening directly for luciferase activity in the absence of the cellular system.
NCGC Assay Protocol Summary: The primary screen utilizes a luciferase reporter gene assay, combining the promoter and splicing based cassettes in tandem with the major portion of the native SMN1 cDNA, and then transfected into HEK293 cells. Compounds that modulate luciferase signal presumably modulate expression of […]. In this assay, we utilize purified firefly luciferase in lieu of a cellular reporter to identify compounds interacting directly with luciferase in the primary screen. Sequence, Parameter, Value, Description (1) Reagent, 2.5 uL, Enzyme in buffer (note A) (2) Compound, 23 nL, From stock solutions (3) Time, 5 minutes, Room temp (4) Reagent#2.5 ul, Luciferase detection reagent (note B) (5) Detector, 1 sec integrate, Luminescent read on Viewlux (note C) Sigma enzyme (1 mg) considered to be MW 61,000 diluted in 357 ul assay buffer to 50 uM stock. A - Enzyme and buffer consists of 50 mM Tris-acetate pH 7.6, 10 mM Mg acetate 0.05% BSA, 0.01% Tween and 5 nM firefly luciferase B - Detection reagent = britelite plus diluted 1:10 in PBS C - Viewlux settings were 1 second integration medium sensitivity Keywords: Spinal muscular atrophy, SMA, SMN2, high throughput screening, MLSMR, MLPCN, NIH Roadmap, qHTS and NCGC

Row | SMILES | Potency | activity change, negative = inhibition
1 | Clc1ccc(-c2nnc(-c3ccccc3)c(N3CCSCC3)n2)cc1 | inconclusive: 11.2 µM [inhibitor, single point] | –
2 | Clc1ccc(-c2nnc(-c3ccc(Br)cc3)c(N3CCSCC3)n2)cc1 | inconclusive: 12.6 µM [inhibitor, partial curve] | –
3 | COc1ccc(OC)c(-c2csc(N3CCC(c4ccccc4)CC3)n2)c1 | – | inactive: 3.27%
4 | Cc1ccc(-c2csc(NC(=O)C3CCN(S(=O)(=O)c4cccs4)CC3)n2)cc1 | active: 8.91 µM | –
5 | COc1nc(-c2ccccc2)nnc1-c1ccccc1 | inconclusive: 11.2 µM [inhibitor, full curve] | –
6 | Clc1ccc(-c2nnc(-c3ccccc3)nc2N2CCSCC2)cc1 | active: 11.2 µM | –
7 | CN(C)CCCN(C(=O)c1cccs1)c1nc(-c2ccccc2)cs1 | – | inactive: -21.8%
8 | Cc1ccc(-c2nnc(-c3ccccc3)c(N3CCOCC3)n2)cc1 | – | inactive: -6.15%
9 | O=S(=O)(NC1CCCc2ccccc21)c1cnc[nH]1 (stereo not drawn) | – | inactive: 3.43% [at 48.7 pM]
10 | CN1CCN(c2nc(-c3ccc(Br)cc3)nnc2-c2ccccc2)CC1 | inconclusive: 10 µM [inhibitor, partial curve] | –
11 | CN(Cc1ccccc1)Cc1c(F)cccc1F | inconclusive: 3.55 µM [inhibitor, single point] | –
12 | O=c1[nH]c(=O)n(C2CCCO2)cc1Br (stereo not drawn) | – | inactive: 0.483%
13 | NC(=O)C1(N2CCCCC2)CCN(c2nc(-c3ccccc3)cs2)CC1 | – | inactive: -5.31%
14 | O=[N+]([O-])c1ccc(-c2nnc(-c3ccccc3)c(N3CCOCC3)n2)cc1 | inconclusive: 15.8 µM [inhibitor, partial curve] | –
15 | FC(F)(F)c1nnc(-c2ccccc2)nc1Oc1ccccc1 | active: 11.2 µM | –
16 | Cn1c(C(=O)NCc2cccs2)cc2oc3ccccc3c21 | inconclusive: 14.1 µM [inhibitor, single point] | –
17 | CCCSc1nnc(Sc2nnnn2-c2ccccc2)s1 | inconclusive: 35.5 µM [inhibitor, single point] | –
18 | CC(C)(C)n1nnnc1C(c1ccc2ncccc2c1)N1CCSCC1 (stereo not drawn) | inconclusive: 2.82 µM [inhibitor, full curve] | –

Three structures out of the list, sorted by count of non-hydrogen atoms, high to low.
Row | SMILES | Potency | activity change, negative = inhibition
4 | Cc1ccc(-c2csc(NC(=O)C3CCN(S(=O)(=O)c4cccs4)CC3)n2)cc1 | active: 8.91 µM | –
17 | CCCSc1nnc(Sc2nnnn2-c2ccccc2)s1 | inconclusive: 35.5 µM [inhibitor, single point] | –
5 | COc1nc(-c2ccccc2)nnc1-c1ccccc1 | inconclusive: 11.2 µM [inhibitor, full curve] | –
